## Primary screen of a compound library

Chains of the proteins cited; added tags and fusions are not shown.
UniProt E9BF75, entry or part of it: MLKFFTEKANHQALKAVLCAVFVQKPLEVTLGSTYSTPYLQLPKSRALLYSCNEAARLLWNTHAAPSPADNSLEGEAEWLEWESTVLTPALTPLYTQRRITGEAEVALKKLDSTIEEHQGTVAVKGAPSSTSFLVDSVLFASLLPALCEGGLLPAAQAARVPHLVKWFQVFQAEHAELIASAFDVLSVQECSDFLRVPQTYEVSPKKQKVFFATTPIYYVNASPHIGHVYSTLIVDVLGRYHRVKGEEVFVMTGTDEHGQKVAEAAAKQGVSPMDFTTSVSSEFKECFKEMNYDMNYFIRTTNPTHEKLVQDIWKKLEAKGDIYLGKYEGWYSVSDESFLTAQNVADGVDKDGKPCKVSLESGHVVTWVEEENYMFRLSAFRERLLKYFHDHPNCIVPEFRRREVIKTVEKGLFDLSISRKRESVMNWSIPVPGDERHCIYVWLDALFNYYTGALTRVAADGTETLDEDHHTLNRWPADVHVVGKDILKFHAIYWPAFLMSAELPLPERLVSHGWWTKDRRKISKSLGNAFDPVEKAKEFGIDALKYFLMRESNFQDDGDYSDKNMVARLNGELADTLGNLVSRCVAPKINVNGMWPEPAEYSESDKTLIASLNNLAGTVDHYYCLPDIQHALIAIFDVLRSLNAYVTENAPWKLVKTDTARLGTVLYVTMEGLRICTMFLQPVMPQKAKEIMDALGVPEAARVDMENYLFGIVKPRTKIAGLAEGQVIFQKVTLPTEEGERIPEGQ

Data taken from ChEMBL document CHEMBL3988442, “University of Dundee, Small-Polar-MMV Screening Library” (2021).

Results are percentages, as filed. How 0% and 100% were set is not recorded. Most values in the screen are low, and negative values occur. This is an unselected part of the compounds tested. A dash means the value is not listed here; it may have been measured.

A: 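Methionyl-tRNA synthetase (putative), Leishmania donovani (UniProt E9BF75). Primary screen of methionyl-tRNA synthetase; the read-out is not stated. The test concentration is not given. Values are per cent inhibition. About 68,000 compounds were tested under these conditions; 0.035% (about 24) showed 50% or more at least once.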
B: 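Assay on Mycobacterium tuberculosis, filed only as a heat shock assay from Cornell; the read-out is not stated. The concentration is filed as 10 mM, unlikely as a test dose, so the dose is not known. Direction is inferred from retests: higher values go with stronger inhibition. Of about 69,000 compounds tested this way, about 930 (1.4%) reached 50% or more in at least one test.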

Compound | A | B
CCN1CCN(c2ccc(CNC(=O)c3ccc(Cl)o3)cn2)CC1 | 14.69% | -9.365%
CCCn1cc(C(=O)NC2CCN(CC(=O)NC3CC3)CC2)c(C)n1 | 14.05% | 7.036%
[H][C@]12CCN(C(=O)Nc3ccccc3C)CC[C@@]1([H])S(=O)(=O)N(CCOC)C2 | - | -11.11%
[H][C@@]12OCCN(C(=O)c3ccc(F)c(OC)c3)[C@@]1([H])CC[C@H]2OCC1CC1 | - | -16.49%
CS(=O)(=O)NCc1nnc2n1CCN(Cc1ccccn1)C2 | 4.975% | -2.233%
O=C(NCC(c1cccs1)N1CCOCC1)c1ccc(F)cc1Cl (stereo unspecified) | 4.869% | -4.729%
O=C(CCCn1cncn1)N1CCCCC1c1nccs1 (stereo unspecified) | -2.091% | 0.6926%
Cc1[nH]c2ccccc2c1-c1ccnc(NCCN2CCOCC2)n1 | 1.399% | -20.45%
[H][C@@]12CCN(C(=O)c3cnn(C)c3)[C@@]1([H])CCN2c1ccccn1 | - | -29.61%
N#Cc1ccnc(N2CCN(C3CCOC3=O)CC2)c1 (stereo unspecified) | 6.522% | 5.14%
O=C(O)C(F)(F)F.O=C1NC2(CCN(C(=O)c3ccccc3)CC2)CC1c1cccnc1 (stereo unspecified) | - | 8.027%
O=C(NCc1cccs1)NCC1(O)CCc2ccccc2C1 (stereo unspecified) | 9.42% | 12.26%
COCCn1ccc2c(C(=O)NC(C)C)cccc21 | 14.73% | 1.323%
Cc1n[nH]c(C)c1CCN(C)C(=O)C(c1cccnc1)N1CCOCC1 (stereo unspecified) | 10.84% | 20.11%
COc1c(CNCCNC(=O)c2cccc(C)c2)c(C)nn1C.Cl | - | -12.18%
CCc1cnc(N)nc1N[C@@H](C)c1ncccc1C | 11.76% | -10.37%
C=C1C(C)(C)[C@H]2CC[C@]1(C(=O)N1CCC(Cn3cc(CO)nn3)CC1)C2 | 11.71% | -
Cc1ccoc1-c1nnc(CN2CCn3c(nnc3C3CC3)C2)o1 | 2.797% | -10.45%
COCCN(C)C(C(=O)O)c1ccc(Cl)c(F)c1 (stereo unspecified) | 10% | 8.582%
CC(C)CN1CCN(S(=O)(=O)c2cn(C)cn2)Cc2cccnc21.O=C(O)C(F)(F)F.O=C(O)C(F)(F)F | - | -11.6%
O=C(CN1CCN(C(=O)c2cccc(-c3ccoc3)c2)CC1)C1CC1 | 15.32% | 12.86%
CN(CCN1CCOCC1)C(=O)C1(c2ccc(F)cc2F)CCC1 | -1.882% | -15.76%
COc1ccccc1CNC(Cc1cccs1)c1nc(C)cs1 (stereo unspecified) | 15.43% | -
O=C(O)Cn1nc(C2CC2)c2c(-c3ccco3)ccnc21 | 13.44% | -13.48%
CCCN(Cc1nnnn1C1CC1)CC1COc2ccccc2O1 (stereo unspecified) | 10.36% | 12.8%
CNc1ccc(CC2CCCN(C(=O)c3cnc(C)nc3)C2)nn1 (stereo unspecified) | 5.245% | -13.96%
COc1ccc(F)cc1-c1nc2c([nH]1)c(C1CC1)nn2C | 13.17% | -9.174%
CN1C(=O)CC[C@@H]2N(C(=O)CCc3cccnc3)CCCC[C@@]21C | 17.46% | -
c1ccc2c(c1)cnn2CCCNC1CCOC2(CCOCC2)C1 (stereo unspecified) | 11.04% | 10.4%
CN(C)CC(C)(C)Cn1cnc(-c2ccccc2)c1-c1ncc[nH]1 | 2.632% | 9.841%
CSc1nnc(C2CCN(C(=O)N3CCCC3)CC2)n1C(C)C | 4.361% | 0.4082%
CC(NC(=O)NCCCn1cccn1)c1ccncc1 (stereo unspecified) | 7.427% | 6.381%
Cc1cn(-c2ccccc2)nc1NS(=O)(=O)c1cccc(C(=O)O)c1 | 8.374% | 7.999%
c1cc(C2CCN(c3cnccn3)CC2)ncn1 | 11.01% | -16.02%
N#Cc1ccccc1C(=O)NCCC1CN(Cc2ccco2)CCO1 (stereo unspecified) | 14.64% | 4.143%
CN(Cc1nnc2n1CCC2)S(=O)(=O)c1ccc(Br)cc1Cl | 8.71% | -4.581%
CN1CCCC1CNC(=O)CCCOc1ccc(F)cc1 (stereo unspecified) | 15.31% | 2.74%
CCN(CC)C(CNCc1ccc(O)cc1)c1ccco1 (stereo unspecified) | 2.431% | -7.133%
O=C(CCCN1CCCCC1)N1CCC(c2nnc[nH]2)CC1 | 10.45% | -7.183%
Cc1ccc(CN2CC(C(=O)N3CCCC3)C3(CCOCC3)C2)s1 (stereo unspecified) | 14.64% | -
O=C(c1ccccn1)N1CCN(c2ccc(-n3cccc3)nn2)CC1 | 7.971% | 4.906%
O=C(CCc1cc2n(n1)CCN(Cc1ccncc1)C2)N1CCCC1 | 7.902% | -18.45%
CN1CCNC(Cc2ccc(-c3ccncc3)cc2)C1=O.Cl (stereo unspecified) | - | 0.9695%
CN(C(=O)NCc1nccn1CCc1ccccc1)C1CCC1 | 20.99% | -21.09%
Cn1cc(CN2CCCC23CCN(C(=O)c2ccncc2)CC3)cn1 | 0.6536% | -
Cc1ccc(O)c(CNc2cccc(CN3CCN(C)CC3)c2)n1 | 5.042% | -0.4619%
COc1ccnc(CN2CCCC(CCc3ccccc3)C2)c1OC (stereo unspecified) | 13.07% | 22.56%
COc1ccccc1CC(=O)N1CCCC1Cn1nc(C)cc1C (stereo unspecified) | 7.669% | -6.497%
CNC(=O)C1(CCCc2ccncc2)CCN1.O=C(O)C(F)(F)F (stereo unspecified) | - | -12.31%
Cc1cnn(C2CN(Cc3nc(-c4ccco4)no3)C2)c1 | 16.6% | -18.56%
N#Cc1cccc(CN2Cc3nccn3CC(CN3CCCC3)C2)c1.O=C(O)C(F)(F)F.O=C(O)C(F)(F)F (stereo unspecified) | - | -44.29%
Cn1ccnc1CN1CCC2(CC1)COCCN(S(C)(=O)=O)C2 | 4.945% | -
[H][C@@]12C[C@H](C(=O)NC)[C@@]([H])(CN(C(=O)Nc3ccc(CC)cc3)C1)O2 | - | 19.09%
Cc1cnn(CC2CCCCN2Cc2nccn2CC(F)(F)F)c1 (stereo unspecified) | 8.197% | 52.97%
[H][C@]12CCN(C(=O)c3cccn3C)[C@@]1([H])CCC(=O)N2CC1CC1 | - | -1.457%

Once more, the final 3:

Result for [H][C@@]12C[C@H](C(=O)NC)[C@@]([H])(CN(C(=O)Nc3ccc(CC)cc3)C1)O2 was B: 19.09%.
Result for Cc1cnn(CC2CCCCN2Cc2nccn2CC(F)(F)F)c1 (stereo unspecified) was A: 8.197%; B: 52.97%.
Result for [H][C@]12CCN(C(=O)c3cccn3C)[C@@]1([H])CCC(=O)N2CC1CC1 was B: -1.457%.